Results are given in words; binding and its absence hold for the method and conditions named. Binding seen in cells or lysates may run through a third protein. Some entries that bind do so weakly or less than the wild type.
Legend:
[1] = biological target: VEGFR-2 (human, endogenous in HUVECs) (human (endogenous in HUVECs)) (UniProt P35968); experiment: co-IP
[2] = biological target: VEGFR-2 (mouse, endogenous in mPMVECs) (mouse (endogenous in mPMVECs)) (UniProt P35918); experiment: co-IP

By UniProt entry, the sequences of proteins in these tests, tags left out. Residues count along the entry.
UniProt P35968, residues 20-1356: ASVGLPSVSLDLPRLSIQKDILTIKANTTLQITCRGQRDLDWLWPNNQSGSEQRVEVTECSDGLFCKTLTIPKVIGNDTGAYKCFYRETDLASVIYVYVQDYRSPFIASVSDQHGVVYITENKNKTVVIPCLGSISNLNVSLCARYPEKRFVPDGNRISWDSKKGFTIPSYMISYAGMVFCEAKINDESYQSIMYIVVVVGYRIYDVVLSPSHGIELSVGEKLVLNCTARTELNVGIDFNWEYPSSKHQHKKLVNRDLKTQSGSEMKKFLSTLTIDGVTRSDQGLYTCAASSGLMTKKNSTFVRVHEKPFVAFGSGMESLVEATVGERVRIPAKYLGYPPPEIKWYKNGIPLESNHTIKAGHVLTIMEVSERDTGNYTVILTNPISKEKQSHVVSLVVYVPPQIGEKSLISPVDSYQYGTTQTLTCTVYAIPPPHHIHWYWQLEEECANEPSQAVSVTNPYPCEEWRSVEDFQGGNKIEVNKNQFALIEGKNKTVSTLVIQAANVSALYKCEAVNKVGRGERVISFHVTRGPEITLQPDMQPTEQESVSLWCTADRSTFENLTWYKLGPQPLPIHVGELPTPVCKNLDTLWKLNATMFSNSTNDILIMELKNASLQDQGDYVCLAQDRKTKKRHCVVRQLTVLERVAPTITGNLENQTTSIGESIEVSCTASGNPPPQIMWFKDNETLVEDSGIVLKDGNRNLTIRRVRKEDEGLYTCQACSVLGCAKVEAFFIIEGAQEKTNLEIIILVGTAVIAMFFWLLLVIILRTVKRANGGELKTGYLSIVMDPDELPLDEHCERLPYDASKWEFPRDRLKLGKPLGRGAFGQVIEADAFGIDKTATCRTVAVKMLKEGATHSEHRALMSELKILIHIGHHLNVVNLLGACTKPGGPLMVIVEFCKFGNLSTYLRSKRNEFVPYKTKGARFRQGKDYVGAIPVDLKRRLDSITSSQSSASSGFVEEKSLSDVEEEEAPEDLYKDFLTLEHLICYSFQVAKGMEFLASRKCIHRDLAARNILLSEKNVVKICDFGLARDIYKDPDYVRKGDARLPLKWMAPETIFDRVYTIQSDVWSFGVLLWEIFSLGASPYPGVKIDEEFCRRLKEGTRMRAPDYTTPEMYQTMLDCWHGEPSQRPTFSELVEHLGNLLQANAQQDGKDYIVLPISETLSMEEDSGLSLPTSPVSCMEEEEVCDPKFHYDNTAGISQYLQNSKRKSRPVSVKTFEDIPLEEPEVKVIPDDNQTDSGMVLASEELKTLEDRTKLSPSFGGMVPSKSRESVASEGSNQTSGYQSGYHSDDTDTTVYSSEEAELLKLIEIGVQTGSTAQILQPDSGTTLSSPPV
UniProt Q03135: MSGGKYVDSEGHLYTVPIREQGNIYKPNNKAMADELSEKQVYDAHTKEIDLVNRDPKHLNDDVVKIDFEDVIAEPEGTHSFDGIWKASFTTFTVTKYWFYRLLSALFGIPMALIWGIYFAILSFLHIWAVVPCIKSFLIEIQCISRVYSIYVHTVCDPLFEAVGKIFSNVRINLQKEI
UniProt P46935: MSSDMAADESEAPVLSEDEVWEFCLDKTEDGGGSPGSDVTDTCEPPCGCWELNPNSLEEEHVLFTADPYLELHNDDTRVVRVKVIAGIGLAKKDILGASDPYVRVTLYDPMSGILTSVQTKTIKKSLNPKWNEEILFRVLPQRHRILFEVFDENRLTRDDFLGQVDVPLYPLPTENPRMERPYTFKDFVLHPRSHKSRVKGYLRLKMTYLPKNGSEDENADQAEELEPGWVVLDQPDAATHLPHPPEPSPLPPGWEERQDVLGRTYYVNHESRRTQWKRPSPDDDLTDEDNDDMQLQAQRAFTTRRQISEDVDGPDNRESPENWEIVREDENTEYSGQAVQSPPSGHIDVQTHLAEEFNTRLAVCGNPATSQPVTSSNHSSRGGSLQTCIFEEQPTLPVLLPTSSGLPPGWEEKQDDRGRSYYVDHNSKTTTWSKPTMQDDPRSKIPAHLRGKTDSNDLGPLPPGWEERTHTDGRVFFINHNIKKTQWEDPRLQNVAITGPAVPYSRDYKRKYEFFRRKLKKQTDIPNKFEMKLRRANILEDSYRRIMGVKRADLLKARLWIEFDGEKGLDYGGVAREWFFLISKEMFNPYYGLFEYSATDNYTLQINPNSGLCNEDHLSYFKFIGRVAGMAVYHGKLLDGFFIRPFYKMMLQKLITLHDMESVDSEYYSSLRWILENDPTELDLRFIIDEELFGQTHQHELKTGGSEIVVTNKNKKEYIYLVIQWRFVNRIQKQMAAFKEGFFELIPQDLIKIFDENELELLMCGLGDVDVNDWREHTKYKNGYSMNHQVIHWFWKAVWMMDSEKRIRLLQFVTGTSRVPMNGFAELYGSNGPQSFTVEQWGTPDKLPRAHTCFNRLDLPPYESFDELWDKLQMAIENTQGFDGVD

Substance | binding [1] | binding [2]
Caveolin-1 (endogenous in HUVECs) (from UniProt Q03135 1-178) | binds | –
Nedd4 (E3 ubiquitin ligase), endogenous in mPMVECs (from UniProt P46935 1-887) (enzyme) | – | binds
c-Cbl (E3 ubiquitin ligase), endogenous in mPMVECs (from UniProt P22682 1-913) (enzyme) | – | binds

Source: doi:10.1101/2023.04.20.537746
